Assay results as given in publication PMC12652319.
Results are given in words; binding and its absence hold for the method and conditions named. Binding seen in cells or lysates may run through a third protein. These calls come from enrichment with a bait or labelling near it, and not all partners need be listed. No binding means not detected with the bait. Tags and fused reporters may be left off the sequences shown.

Target: T1, Flag-Halo-tagged CTCF WT (dox-inducible rescue) (UniProt Q61164)
T1 sequence: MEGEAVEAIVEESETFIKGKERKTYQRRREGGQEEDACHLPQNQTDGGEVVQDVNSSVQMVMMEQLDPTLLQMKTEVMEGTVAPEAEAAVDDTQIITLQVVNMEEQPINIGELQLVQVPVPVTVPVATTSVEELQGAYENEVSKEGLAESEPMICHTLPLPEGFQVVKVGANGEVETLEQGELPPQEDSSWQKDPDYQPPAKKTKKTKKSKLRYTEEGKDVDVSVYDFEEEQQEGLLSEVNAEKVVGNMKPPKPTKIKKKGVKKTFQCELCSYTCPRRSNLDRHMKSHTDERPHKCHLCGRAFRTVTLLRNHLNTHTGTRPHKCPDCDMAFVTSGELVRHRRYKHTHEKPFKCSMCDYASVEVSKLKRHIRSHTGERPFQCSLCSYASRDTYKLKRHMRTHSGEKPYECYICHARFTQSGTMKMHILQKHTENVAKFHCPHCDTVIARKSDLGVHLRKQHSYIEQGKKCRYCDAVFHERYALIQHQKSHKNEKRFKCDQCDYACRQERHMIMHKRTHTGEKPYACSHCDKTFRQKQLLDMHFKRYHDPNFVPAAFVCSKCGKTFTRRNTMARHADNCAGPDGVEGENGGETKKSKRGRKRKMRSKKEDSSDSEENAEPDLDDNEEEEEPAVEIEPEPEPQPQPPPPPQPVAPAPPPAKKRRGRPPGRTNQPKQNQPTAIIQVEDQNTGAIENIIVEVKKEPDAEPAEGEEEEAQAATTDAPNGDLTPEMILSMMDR
Assay: affinity purification with mass spectrometry; ChIP-MS: native anti-Flag agarose immunoprecipitation of Flag-Halo-CTCF rescues from the benzonase-digested chromatin fraction (20 mM Tris pH 8.0, 100 mM NaCl, 2 mM MgCl2), Flag peptide elution, LC-MS/MS with differential spectral count analysis

binding: no binding
B1: Grb10 protein (protein, UniProt Q60760 1-621)
chain: MNNDINSSVESLNSACNMQSDTDTAPLLEDGQHASNQGAASSSRGQPQASPRQKMQRSQPVHILRRLQEEDQQLRTASLPAIPNPFPELTGAAPGSPPSVAPSSLPPPPSQPPAKHCGRCEKWIPGENTRGNGKRKIWRWQFPPGFQLSKLTRPGLWTKTTARFSKKQPKNQCPTDTVNPVARMPTSQMEKLRLRKDVKVFSEDGTSKVVEILTDMTARDLCQLLVYKSHCVDDNSWTLVEHHPQLGLERCLEDHEIVVQVESTMPSESKFLFRKNYAKYEFFKNPVNFFPDQMVNWCQQSNGGQAQLLQNFLNTSSCPEIQGFLQVKEVGRKSWKKLYVCLRRSGLYYSTKGTSKEPRHLQLLADLEESSIFYLIAGKKQYNAPNEHGMCIKPNKAKTEMKELRLLCAEDEQIRTCWMTAFRLLKYGMLLYQNYRIPQRKGLPPPFNAPMRSVSENSLVAMDFSGQIGRVIDNPAEAQSAALEEGHAWRKRSTRMNILSSQSPLHPSTLNAVIHRTQHWFHGRISREESHRIIKQQGLVDGLFLLRDSQSNPKAFVLTLCHHQKIKNFQILPCEDDGQTFFTLDDGNTKFSDLIQLVDFYQLNKGVLPCKLKHHCIRVAL
